# In all, about 200,000 compounds went through this assay and about 25 (0.01%) were called active. This list was built around the results that the source calls inconclusive (neither active nor inactive); the mix of calls is not that of the screen. The call rests on the fitted dose curve; in most records, active means well fitted inhibition curve with a large enough effect in the signal ratio, with a control signal flat (not every such curve was filed as active); inconclusive means small, poorly fitted or top-dose-only effect, or effect the other way, or a change in a side signal; inactive means flat fitted curve, though single readings scatter; the % refers to the signal ratio. Potencies beside an inconclusive call are fits to weak or partial responses and may not hold up.
# Test: qHTS Assay for Modulators of Lamin A Splicing
# Conditions: HeLa LMNA splicing GFP/RFP minigene ratio, 48 h; ratio change, negative = inhibition: at 46.1 µM (top of the series) unless noted
# How it was run: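 Read-out is the ratio of GFP to DsRed2 object intensity, acquired by 488 nm laser-scanning cytometry on HeLa lamin A-EGFP minigene reporter cells. Compound incubation 48 hrs at 37 °C in Opti-MEM with 2% FBS; DMSO 0.5% final.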
# On the % scale 0 is the no-effect control and ±100 the full control effect; potency means the concentration at half of the fitted maximal effect.
SMILES,"ratio change, negative = inhibition",Potency
COc1ccc(/C=C/C(=O)O)cc1,inconclusive: 39.7%,
O=C(Cc1ccc(Cl)cc1)Nc1ccc(-c2cc3ccccc3oc2=O)c(Cl)c1,,"inconclusive: 5.01 µM [inhibitor, single point]"
Cc1nc2ccc(NC(=S)NC3CCCCC3)cc2nc1C,inconclusive: -0.479% [at 46 µM],
CCCN1C(=O)SC(CC(=O)Nc2cccc3ccccc23)C1=O (stereo not drawn),inactive,
COC(=O)c1cc(NC(=O)C2CC(=O)NC(=NCc3ccc(OC)cc3)S2)cc(C(=O)OC)c1 (stereo not drawn),inconclusive: 13.6% [at 46 µM],
Cc1ccc(C(=O)N/C(=C\c2ccc(-c3ccc(Cl)cc3)o2)C(=O)NCCCN(C)C)cc1,,"inconclusive: 35.5 µM [rising, partial curve]"
S=C(NCc1ccc(Cl)cc1Cl)Nc1ccccc1,inconclusive: -32.3%,
CCC(C)C(NC)C(=O)O (stereo not drawn),inactive,
Nc1n[nH]c2ccccc12,inactive,
CCCCc1ncc(/C=C(\Cc2cccs2)C(=O)O)n1Cc1ccc(C(=O)O)cc1,inconclusive: 0.0922%,
O=C(Nc1ccc2oc(-c3cccnc3)nc2c1)c1cc2ccccc2o1,inconclusive: 6.85%,
CCN(C(=O)c1ccco1)c1nnc(-c2ccc(OC)cc2)s1,inactive,
Cc1cc(C(=O)CCl)c(C)n1CCc1ccccc1,inconclusive: 23.4% [at 46 µM],
N[C@@H](Cc1ccc(O)c(O)c1)C(=O)O,inactive,
CC(=O)c1cccc(N2C(=O)CN(S(C)(=O)=O)CC2(C)C(=O)NC2CCCC2)c1 (stereo not drawn),inconclusive: 0.894% [at 46 µM],
CCCCCCc1cc2cc(S(=O)(=O)c3ccc(F)cc3)c(=O)oc2cc1O,,"inconclusive: 12.6 µM [falling, partial curve]"
COc1ccc(-c2nnn(CC(=O)N(CC(=O)NCCC(C)C)c3ccccc3)n2)cc1OC,inconclusive: 13.9%,
O=C(Nc1ccc(Br)cc1)c1ccc(N2C(=O)C3CC=CCC3C2=O)cc1 (stereo not drawn),inconclusive: -31%,
COc1cccc(CNC(=O)C2CCC(CNc3nc(=S)[nH]c4ccccc34)CC2)c1 (stereo not drawn),inconclusive: 110% [at 46 µM],
CCCCCCCNC(=O)CC(NS(=O)(=O)c1ccc(NC(C)=O)cc1)C(C)C (stereo not drawn),inconclusive: 0.555%,
C=CCNC(=O)c1onc(CSc2cccc3ccccc23)c1C(=O)O,,"inconclusive: 8.91 µM [inhibitor, single point]"
CC(C)N1C(=O)/C(=C/c2nc3ccccc3c(=O)n2-c2ccccc2)c2ccccc21,inactive,
Cc1ccccc1C(=O)O/N=C(\N)c1cccc([N+](=O)[O-])c1,inconclusive: -3.81% [at 0.0737 µM],
CSc1ccc(C(=S)N2CCN(Cc3ccccc3)CC2)cc1,inactive,
Cc1nc(NC(=S)NC(=O)COc2ccccc2Cl)ccc1Br,inconclusive: -23.9%,
COc1cc2[nH]c(=S)n(CCCN3CCOCC3)c(=O)c2cc1OC,inactive,
CN(C)C(=O)c1ccc(-c2ccc3ncnc(N4CCC(C(=O)O)CC4)c3c2)cc1,inactive,

# One compound at a time, from the list above.
# Cc1ccccc1C(=O)O/N=C(\N)c1cccc([N+](=O)[O-])c1 is listed as ratio change, negative = inhibition: inconclusive: -3.81% [at 0.0737 µM]
# O=C(Cc1ccc(Cl)cc1)Nc1ccc(-c2cc3ccccc3oc2=O)c(Cl)c1 is listed as Potency: inconclusive: 5.01 µM [inhibitor, single point]

# (further entries)

SMILES,"ratio change, negative = inhibition",Potency
CCN(CC)C(=O)C1CCCN(c2ncnc3c2c(-c2ccccc2)cn3-c2cccc(C)c2)C1 (stereo not drawn),inconclusive: -11.3% [at 46 µM],
Cc1cccc(NC(=O)c2cnc3n(c2=O)CCS3)c1,inactive,
Nc1nncn1C(=O)CCCOc1ccccc1,inconclusive: 8.98%,
COc1ccc(-c2cc3ccc(O)c(CN4CCCCC4C)c3oc2=O)cc1OC (stereo not drawn),inconclusive: 14.8% [at 46 µM],
O=C(O)CC(O)CC(O)/C=C/c1c(C2CC2)nc2ccccc2c1-c1ccc(F)cc1 (stereo not drawn),inconclusive: 8.68%,
O=C(CSc1nncs1)NCCCc1ccccc1,inactive,
COc1ccc(OCc2ccc(-c3nc(C#N)c(NCc4cccnc4)o3)o2)cc1,inconclusive: -17.6% [at 46 µM],
CC(C)C(=O)Nc1ncc(Cc2cccc(Cl)c2)s1,inconclusive: 26.7% [at 46 µM],
c1cncc(-c2nccc(-n3ccnc3)n2)c1,,"inconclusive: 0.708 µM [inhibitor, single point]"
Cc1ccc(NC(=O)c2c(C)oc3ncn(CC(C)C)c(=O)c23)nc1,inactive,
CCOc1ccc(NC(=O)c2sc(NC(C)=O)c(C(=O)OC)c2C)cc1,inconclusive: -6.42% [at 46 µM],
C/C(=N\NC(=O)CSCc1ccccc1Cl)c1cc(O)ccc1O,inconclusive: 11.1% [at 46 µM],
O=C(Nc1ccc(N2CCOCC2)c(C(=O)O)c1)c1ccc(Br)cc1,inactive,
COc1ccc(-c2cc(C(=O)N/N=C/c3sccc3C)c3ccccc3n2)c(OC)c1,,"inconclusive: 7.08 µM [falling, partial curve]"
Cn1c(Oc2ccc(Cl)cc2)c(C=O)c2ccccc21,inconclusive: -16.1%,
O=C(CCC1CCCCC1)Nc1ccccc1-c1ccccc1,inactive,
Cc1cc(Nc2ccc(Cl)cc2)n(-c2cccc(Cl)c2)n1,,"inconclusive: 14.1 µM [fluorescent, single point]"
COc1cc(C2c3c(oc4ccccc4c3=O)C(=O)N2Cc2ccc(C)cc2)ccc1O (stereo not drawn),inactive,
Nn1c(SCC(=O)N2CCCc3ccccc32)nnc1-c1ccccc1,inactive,
CC1CCN(CCCNC(=O)CN2C(=O)CSc3ccc(S(=O)(=O)N4CCOCC4)cc32)CC1,inconclusive: -7.49% [at 46 µM],
CCCOc1ccc(C(=O)NC(=S)NCc2cccnc2)cc1,,"inconclusive: 35.5 µM [fluorescent, single point]"
Clc1cccc(-n2ncc3c(NCCCN4CCOCC4)ncnc32)c1,inconclusive: -15.9% [at 46 µM],
COc1cc(-c2ccno2)ccc1S(=O)(=O)N1CCN(c2ccccc2)CC1,inconclusive: -7.72% [at 46 µM],
CN(C)c1ccc(CNC(=O)C2CCN(S(=O)(=O)c3ccc4[nH]c(=O)ccc4c3)CC2)cc1,inconclusive: -29.6% [at 46 µM],
Cc1ccc(Cc2nc3ccccc3nc2SCC(=O)NCc2ccccc2Cl)cc1,inactive,
Cc1ccccc1C(=O)N1CCN=C1SCc1ccc([N+](=O)[O-])cc1,inconclusive: 26.7% [at 9.22 µM],
